Experimental findings from patent US5236899A (Merck & Co., Inc., priority 1991, dated 1993) are described below.

The series can be described thus: general procedure: solution-phase peptide synthesis; BOP-Cl/triethylamine; DCC/N-hydroxybenzotriazole; BOP/N-methylmorpholine; 1-prop.

Some peptides are written in HELM: one residue between dots, names in brackets for other building blocks, links after the first $.

On to “Boc-D-Ala-MeLeu-MeLeu-MeVal-MeBmt-Abu-Sar-MeLeu-Val-MeAla-AlaOH”, for which the step yield (late stage modification step) is reported as 77.5%.

Regarding “Boc-L-2-Aminobutyryl-Sarcosyl-N-Methyl-L-Leucyl-L-Valyl-N-Methyl-L-Alanyl- L-Alanine Benzyl Ester”, the step yield (coupling step) was 51% of theory.

With “Boc-N-Methyl-L-Leucyl-L-Valyl-N-Methyl-L-Alanyl-L-Alanine Benzyl Ester”, the step yield (coupling step) is given as 75% of theory.

Where the note is “coupling step”, “N,O-isopropylidene-MeBmt-Abu-Sar-MeLeu-Val-MeAla-AlaOBzl” showed a step yield of 58%.

With “PEPTIDE1{[MeBmt].[Abu].[Sar].[MeLeu].V.[MeAla].A.[dA].[MeLeu].[MeLeu].[MeVal]}$PEPTIDE1,PEPTIDE1,1:R1-11:R2$$$V2.0”, the cyclisation yield (cyclisation step, on linear precursor) is 63%.
